Drawing on PMC3299299, “Recombinant Expression and Characterization of Human and Murine ACE2: Species-Specific Activation of the Alternative Renin-Angiotensin-System” (International Journal of Hypertension, 2012), this text covers binding for one molecule.

Results are given in words; binding and its absence hold for the method and conditions named. Some binding calls cover weakened binding; strength is not graded here.

This experiment has as its target T1, recombinant murine ACE2 (angiotensin-converting enzyme 2), extracellular domain (murine), Q8R0I0.
T1 chain: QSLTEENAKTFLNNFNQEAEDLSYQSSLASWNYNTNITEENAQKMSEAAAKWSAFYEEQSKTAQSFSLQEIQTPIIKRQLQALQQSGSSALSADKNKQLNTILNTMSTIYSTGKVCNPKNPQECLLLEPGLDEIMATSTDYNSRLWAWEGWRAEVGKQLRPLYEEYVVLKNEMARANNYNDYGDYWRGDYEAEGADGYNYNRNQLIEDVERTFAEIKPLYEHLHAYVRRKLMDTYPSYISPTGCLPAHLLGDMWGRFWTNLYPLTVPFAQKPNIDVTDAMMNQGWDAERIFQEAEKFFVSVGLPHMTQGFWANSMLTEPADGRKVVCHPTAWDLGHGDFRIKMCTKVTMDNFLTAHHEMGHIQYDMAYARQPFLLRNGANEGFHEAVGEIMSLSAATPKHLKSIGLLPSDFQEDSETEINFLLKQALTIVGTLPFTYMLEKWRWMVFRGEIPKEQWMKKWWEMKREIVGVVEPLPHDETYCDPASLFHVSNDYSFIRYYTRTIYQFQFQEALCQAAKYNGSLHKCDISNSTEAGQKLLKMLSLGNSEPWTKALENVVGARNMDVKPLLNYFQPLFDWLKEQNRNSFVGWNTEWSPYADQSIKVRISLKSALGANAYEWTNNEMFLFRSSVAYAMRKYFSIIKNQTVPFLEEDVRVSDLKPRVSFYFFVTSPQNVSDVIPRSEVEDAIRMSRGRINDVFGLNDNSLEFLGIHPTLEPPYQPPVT
The experiment is described as follows: SEC; size-exclusion chromatography of 5 ug of the purified enzyme, absorbance at 280 nm in line; both purified. Particulars: remark: other sources report otherwise.

B1: recombinant murine ACE2 (angiotensin-converting enzyme 2), extracellular domain, Q8R0I0 18-740 (enzyme)
chain: T1 chain
For the molecule B1, the binding entry is “binds”.
